This note sets out measurements from publication PMC7819943, “Rice protein-binding microarrays: a tool to detect cis-acting elements near promoter regions in rice”.

By UniProt entry, the sequences of proteins in these tests, tags left out.
UniProt Q0JBA9, entry or part of it: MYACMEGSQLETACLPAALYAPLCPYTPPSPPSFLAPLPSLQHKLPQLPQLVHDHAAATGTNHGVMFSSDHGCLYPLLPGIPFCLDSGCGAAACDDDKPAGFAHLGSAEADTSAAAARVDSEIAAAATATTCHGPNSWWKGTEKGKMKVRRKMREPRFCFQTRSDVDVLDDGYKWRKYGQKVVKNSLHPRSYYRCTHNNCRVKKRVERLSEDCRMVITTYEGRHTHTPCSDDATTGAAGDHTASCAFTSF

This is one part of the list.

The experiment concerns the target OsWRKY34 (Oryza sativa, UniProt Q0JBA9 1-250). The experiment in a line: protein-binding microarray (RPBM); PBS, 2% BSA, 51.3 ng/ul salmon testes DNA, 50 uM zinc acetate, 200 nM TF, 25 C, 1 h; high values mean tight binding. The following applies: protein: recombinant; tags: N-terminal polyhistidine and DsRed monomer fusion (pET32a); label: CyDye5-dUTP incorporated in the synthesized complementary strand; 3' TTTTT single-stranded linker to array surface; dsDNA, one strand shown. Put shortly: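 The binding signal is fluorescence intensity per array feature (arbitrary units). Readings came from an Axon 4000B scanner after a washed, 2% BSA-blocked, double-stranded custom Agilent array had been incubated for 1 h at 25 °C with 200 nM protein and 50 µM zinc acetate. The protein was a Ni–NTA-purified transcription factor fused N-terminally to polyhistidine and DsRed, expressed in E. coli BL21-CodonPlus.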
As for “GGGCGTGTGGGCTGTGGCTCTCGTCGTTCTTGGCGCCACCCGGAGTCACCTAGTGCAG”, the binding signal is 9210 fluorescence intensity (a.u.).

On to “GGTTTTTTCGGGCTTGTCCACTCATACCAGAGCCAACGTACGGAGTCACCTAGTGCAG”, for which the binding signal is 9720 fluorescence intensity (a.u.).

Consider “GCGTTTCTCTCTATATATTTTTTTTATTTTTTAGCGTAAACGGAGTCACCTAGTGCAG”, for which the binding signal was 10400 fluorescence intensity (a.u.).

Consider “ACTATTCACATTCAACGTTTGACTGTTCTTTTATTTGAAACGGAGTCACCTAGTGCAG”, for which the binding signal was 11200 fluorescence intensity (a.u.).

With “GAACTCACCTCATCCATTTTTCAATATTGATCATGTCAACCGGAGTCACCTAGTGCAG”, the binding signal was 10500 fluorescence intensity (a.u.).

With “ACTGTTGTATGCTATATATTTTTTGTGTGTTGTTGTTTTTCGGAGTCACCTAGTGCAG”, the binding signal was 14900 fluorescence intensity (a.u.).

In the case of “TATATACTCCATATGGCTGGATGCATTGCAAAACAATTTACGGAGTCACCTAGTGCAG”, the binding signal is 8680 fluorescence intensity (a.u.).

For the sequence “TGTAGCATATCCTTTTTGTGCAACCATCCACGCACATGATCGGAGTCACCTAGTGCAG”, the binding signal was 8480 fluorescence intensity (a.u.).

Regarding “TCCCTCTCGCTCACATTCATCTCTCGCTCCGTTCGTCCACCGGAGTCACCTAGTGCAG”, the binding signal is 8900 fluorescence intensity (a.u.).

“AAGCGACGACTTCCTCCCCTCCCACACGCATCCCGTCATCCGGAGTCACCTAGTGCAG”: the binding signal was 8890 fluorescence intensity (a.u.).

Turning to “AGTTGATCGGTTGATGCGCTGTCTTTGTTGTTTTGTGGAACGGAGTCACCTAGTGCAG”, the binding signal was 11700 fluorescence intensity (a.u.).

Regarding “AACTTCGCCGCCTACACGGCGCTCCTCAACCCGCACGACCCGGAGTCACCTAGTGCAG”, the binding signal is 9170 fluorescence intensity (a.u.).

As to “TACCTGAGTTATTACTGCAAGGGAGGGAGGGATCAAATGCCGGAGTCACCTAGTGCAG”, the binding signal was 8130 fluorescence intensity (a.u.).

For “TCCACTTCTGTCTTCCTTGCTGGATTTGTGATCTTGAATTCGGAGTCACCTAGTGCAG”, the binding signal is 8390 fluorescence intensity (a.u.).

In the case of “GACCACGGTGTTTACCATAACCAGCCTGCTTATCTCACACCGGAGTCACCTAGTGCAG”, the binding signal is 8220 fluorescence intensity (a.u.).

Take “GCCCATTGTTGTTTTTTAATGTCAAAACTGTTTTTTTTTTCGGAGTCACCTAGTGCAG”: the binding signal is 12900 fluorescence intensity (a.u.).

“TAAAGTTCCCGCTAGAGTTAAGTTGACCGTTGTGGAGCCCCGGAGTCACCTAGTGCAG”: the binding signal is 8790 fluorescence intensity (a.u.).

As for “TAAGTTATACCACTTTGTTATTGATGACTTTTTCAGTTGACGGAGTCACCTAGTGCAG”, the binding signal is 8330 fluorescence intensity (a.u.).

Take “ACTGTGCAATTGATTTTTTTTCGTCCACATTTAATGCTCCCGGAGTCACCTAGTGCAG”: the binding signal is 8840 fluorescence intensity (a.u.).

Take “CAAGCACACCAGACACCACACCGAGCCCGCCACGTCCACCCGGAGTCACCTAGTGCAG”: the binding signal was 10300 fluorescence intensity (a.u.).

For the sequence “GTCCTCCGGCCGCCGCTCCCCACCCGCCGCCGCCGCCGCCCGGAGTCACCTAGTGCAG”, the binding signal was 8860 fluorescence intensity (a.u.).

Turning to “CTCCAGCTCCGTCCCCGCGCATAATTAATTGCCTCACTAACGGAGTCACCTAGTGCAG”, the binding signal is 8180 fluorescence intensity (a.u.).

For the sequence “TCATATTCGTGTTGTTTTTTTAATTAATTTAGCTCACAACCGGAGTCACCTAGTGCAG”, the binding signal is 8880 fluorescence intensity (a.u.).

For the sequence “CCCTACCCGAGCGGCCACACCCATTTCCCTACTCCCACCCCGGAGTCACCTAGTGCAG”, the binding signal is 8100 fluorescence intensity (a.u.).

“ACATGTGGGCTCCACGTGTTTTGTTTAATTTTTTTTTCTGCGGAGTCACCTAGTGCAG”: the binding signal is 8480 fluorescence intensity (a.u.).

“ACCACTCATTTCACTCACTCAACTCTCTCTCACCCTCAACCGGAGTCACCTAGTGCAG”: the binding signal was 15100 fluorescence intensity (a.u.).

As to “CATCCCCAAGCCTTGTTGTCTGCATGGAGCCATCACAATCCGGAGTCACCTAGTGCAG”, the binding signal is 10500 fluorescence intensity (a.u.).

Consider “CCGTCGCCGTCCACACCAGTCGCTGAGCCAGCTGCGACCGCGGAGTCACCTAGTGCAG”, for which the binding signal is 8660 fluorescence intensity (a.u.).

For the sequence “AACGGTCGCCCCGCTCCGCCGTTTTTCCACCGGTTTTTCACGGAGTCACCTAGTGCAG”, the binding signal was 11000 fluorescence intensity (a.u.).

As for “GCTGATTTAAGGTTACGTGGGTGTGCTTGAGAAGAAGGGGCGGAGTCACCTAGTGCAG”, the binding signal was 8260 fluorescence intensity (a.u.).

Take “TGTCACAGTGTTTTGTTTGTGTTTTTGACCTTGCTTTCCTCGGAGTCACCTAGTGCAG”: the binding signal was 16800 fluorescence intensity (a.u.).

For the sequence “AAGCTAGCCCGACAACTTTACTATAACGCTTTTCATGTTACGGAGTCACCTAGTGCAG”, the binding signal was 11400 fluorescence intensity (a.u.).

In the case of “TAAAAAAGTCAACGGCGTTAAACATTTTGGGATGGAGGGACGGAGTCACCTAGTGCAG”, the binding signal was 11200 fluorescence intensity (a.u.).

For “GCTCCTCAGGCACAAGCACGCCACACACTCTCTCATCTCACGGAGTCACCTAGTGCAG”, the binding signal was 9470 fluorescence intensity (a.u.).

On to “AGGCGAATAATTCCGCTGTTGCTTCGCTGCCTTTTGCCTTCGGAGTCACCTAGTGCAG”, for which the binding signal is 8630 fluorescence intensity (a.u.).

Turning to “AATCCAATTAAGCTGCGTACATCGCACATTTCGTGCTGCCCGGAGTCACCTAGTGCAG”, the binding signal was 8200 fluorescence intensity (a.u.).

Turning to “CCCTTCCAAGATCCGATTTCCCCACCACCGCTCGGTCGCCCGGAGTCACCTAGTGCAG”, the binding signal is 9280 fluorescence intensity (a.u.).

In the case of “AATCAAACGACCATTCCTATATTTTTTCTGTGTTTTGTAACGGAGTCACCTAGTGCAG”, the binding signal was 9860 fluorescence intensity (a.u.).

For “TTACAACAAAACTAAGTAGGGGTGGGTATTTGCAACAAAACGGAGTCACCTAGTGCAG”, the binding signal was 17600 fluorescence intensity (a.u.).

In the case of “CCCCTTTACCCCGCCCGTTTCCTCTTGTTTCCGCCATGCCCGGAGTCACCTAGTGCAG”, the binding signal was 8730 fluorescence intensity (a.u.).

Regarding “GGGCAGCAGTTGCGGGACGTGCGGGGCGAGTGCGGGGAGTCGGAGTCACCTAGTGCAG”, the binding signal is 8950 fluorescence intensity (a.u.).

Regarding “AATCGAAATTTACTGTTCGGCTTTTGATACACCTTGACTCCGGAGTCACCTAGTGCAG”, the binding signal is 8560 fluorescence intensity (a.u.).

As for “TCACAGTGGATTGCCACACCATTCGAAGTTCTTTATATGCCGGAGTCACCTAGTGCAG”, the binding signal is 9140 fluorescence intensity (a.u.).

Regarding “ACTCATATTGCAAATGTCATGTTTATTGTCTTAATATTTTCGGAGTCACCTAGTGCAG”, the binding signal is 8430 fluorescence intensity (a.u.).

In the case of “TAACTTCTCCTCTCTCGTTTCATATGTACGCATTTCCTCACGGAGTCACCTAGTGCAG”, the binding signal is 8930 fluorescence intensity (a.u.).

As for “CCTGTTCGCAGCGCATGTGAAGCCATTGCATTGTACTAACCGGAGTCACCTAGTGCAG”, the binding signal is 8150 fluorescence intensity (a.u.).

For the sequence “ACGACGTGAGGGAGGTGGTTGGGGCTCGTGATGGCGGTGTCGGAGTCACCTAGTGCAG”, the binding signal was 8140 fluorescence intensity (a.u.).

In the case of “CTGCTTCCATCCAACAGCATGTCCACATCCATATCCAATCCGGAGTCACCTAGTGCAG”, the binding signal is 9690 fluorescence intensity (a.u.).

Consider “TGCTTTTCGTACCAATTACTACTACTTCAGTTTCTAACCACGGAGTCACCTAGTGCAG”, for which the binding signal is 11000 fluorescence intensity (a.u.).

Regarding “CTCGTCCTTCCACACCACGTCCAGGTCATTTCCGCCTCCTCGGAGTCACCTAGTGCAG”, the binding signal was 10000 fluorescence intensity (a.u.).

Take “CCATCTTGTTTCGTCGTTTGCTGCGGCCTTCGGTTGAGGACGGAGTCACCTAGTGCAG”: the binding signal was 14700 fluorescence intensity (a.u.).

With “CCACCATCACCATCTAAACGTTACAGCCACAATGTTCTAGCGGAGTCACCTAGTGCAG”, the binding signal is 9020 fluorescence intensity (a.u.).

Take “AAACTTTTTCTCACCTTTGAGCTGTCCCTATATACACAACCGGAGTCACCTAGTGCAG”: the binding signal is 8490 fluorescence intensity (a.u.).

For the sequence “AAAGTTAACATACTTTTGTCTTAATTTGCATGGTTTCTTACGGAGTCACCTAGTGCAG”, the binding signal is 9520 fluorescence intensity (a.u.).
